doi:10.1101/2025.07.05.663274
No constants are given. Whether binding was seen depends on the method and setting. In cells and extracts the contact can be indirect. Some entries that bind do so weakly or less than the wild type.

Sequences of proteins named here, by UniProt entry; tags and fusion partners are left off.
UniProt Q92481: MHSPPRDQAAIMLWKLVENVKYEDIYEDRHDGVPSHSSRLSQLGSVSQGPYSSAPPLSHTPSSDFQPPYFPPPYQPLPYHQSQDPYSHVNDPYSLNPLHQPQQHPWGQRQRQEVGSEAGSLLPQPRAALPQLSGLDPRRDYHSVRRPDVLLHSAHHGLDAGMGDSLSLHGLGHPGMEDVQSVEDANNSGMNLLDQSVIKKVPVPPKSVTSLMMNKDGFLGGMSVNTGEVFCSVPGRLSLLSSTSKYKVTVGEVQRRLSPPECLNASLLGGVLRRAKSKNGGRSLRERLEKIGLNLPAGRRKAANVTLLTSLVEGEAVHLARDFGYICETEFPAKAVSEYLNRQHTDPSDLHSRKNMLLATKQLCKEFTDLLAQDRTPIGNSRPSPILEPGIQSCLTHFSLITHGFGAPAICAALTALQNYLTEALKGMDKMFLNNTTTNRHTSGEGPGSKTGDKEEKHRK
UniProt P10275: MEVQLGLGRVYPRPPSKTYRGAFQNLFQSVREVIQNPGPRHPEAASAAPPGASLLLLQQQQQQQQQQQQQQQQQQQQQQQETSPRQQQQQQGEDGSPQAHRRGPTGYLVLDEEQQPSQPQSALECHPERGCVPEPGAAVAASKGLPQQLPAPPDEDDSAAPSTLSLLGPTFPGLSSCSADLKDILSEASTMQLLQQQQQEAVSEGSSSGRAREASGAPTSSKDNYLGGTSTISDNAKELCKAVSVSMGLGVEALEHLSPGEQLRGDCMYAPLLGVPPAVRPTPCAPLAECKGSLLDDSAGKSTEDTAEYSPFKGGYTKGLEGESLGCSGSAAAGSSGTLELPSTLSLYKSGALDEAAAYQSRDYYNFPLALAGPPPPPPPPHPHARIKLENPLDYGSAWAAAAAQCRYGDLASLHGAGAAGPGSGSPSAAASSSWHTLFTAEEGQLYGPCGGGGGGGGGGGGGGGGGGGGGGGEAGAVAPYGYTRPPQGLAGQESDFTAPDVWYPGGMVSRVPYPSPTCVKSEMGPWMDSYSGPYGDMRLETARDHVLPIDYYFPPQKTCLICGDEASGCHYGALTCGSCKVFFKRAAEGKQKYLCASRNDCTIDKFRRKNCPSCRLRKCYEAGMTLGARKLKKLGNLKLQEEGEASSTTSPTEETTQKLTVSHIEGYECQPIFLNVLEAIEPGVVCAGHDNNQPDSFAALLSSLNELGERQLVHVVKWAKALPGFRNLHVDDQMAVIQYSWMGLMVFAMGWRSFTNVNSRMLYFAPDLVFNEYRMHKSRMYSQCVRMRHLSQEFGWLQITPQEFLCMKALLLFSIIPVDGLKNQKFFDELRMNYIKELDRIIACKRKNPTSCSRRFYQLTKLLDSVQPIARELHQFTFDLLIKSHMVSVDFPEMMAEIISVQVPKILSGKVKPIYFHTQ

Assays:
[1] = target: transcription factor Activating Protein 2β (human (endogenous in MDA-MB-453)) (UniProt Q92481); test: co-IP
[2] = target: transcription factor Activating Protein 2β (human (endogenous in MDA-MB-453)) (UniProt Q92481); test: proximity ligation
[3] = target: transcription factor Activating Protein 2β (human (endogenous in MDA-MB-453)) (UniProt Q92481); test: proximity ligation; remark: listed apart in the source

binding [1]: binds
binding [2]: binds
binding [3]: binds
Substance: androgen receptor (from UniProt P10275 1-920)
